Assay results as given in the supplement of paper PMC10849652.
This is one part of the list.

Chains of the proteins cited; added tags and fusions are not shown. Lines headed by an entry give the natural chain unless they say otherwise; changes in a name come on top.
UniProt O95715: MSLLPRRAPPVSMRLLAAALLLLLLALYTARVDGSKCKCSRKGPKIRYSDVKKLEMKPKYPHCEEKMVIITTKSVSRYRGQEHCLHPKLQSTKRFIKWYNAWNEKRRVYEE
UniProt Q8WV16: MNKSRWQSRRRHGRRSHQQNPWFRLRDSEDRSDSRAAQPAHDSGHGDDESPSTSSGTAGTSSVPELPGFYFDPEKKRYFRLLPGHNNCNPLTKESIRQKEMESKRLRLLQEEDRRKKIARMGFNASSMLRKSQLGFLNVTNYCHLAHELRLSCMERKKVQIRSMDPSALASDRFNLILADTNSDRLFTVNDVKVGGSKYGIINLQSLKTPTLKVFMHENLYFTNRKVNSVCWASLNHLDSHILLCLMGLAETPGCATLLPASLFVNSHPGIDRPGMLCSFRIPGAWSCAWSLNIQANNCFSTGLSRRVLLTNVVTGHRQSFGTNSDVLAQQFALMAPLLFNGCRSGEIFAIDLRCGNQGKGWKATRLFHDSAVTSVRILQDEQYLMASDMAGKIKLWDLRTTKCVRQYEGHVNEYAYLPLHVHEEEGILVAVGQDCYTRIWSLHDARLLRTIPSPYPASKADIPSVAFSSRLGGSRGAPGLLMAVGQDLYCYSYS
UniProt P25774, whole entry, looked up: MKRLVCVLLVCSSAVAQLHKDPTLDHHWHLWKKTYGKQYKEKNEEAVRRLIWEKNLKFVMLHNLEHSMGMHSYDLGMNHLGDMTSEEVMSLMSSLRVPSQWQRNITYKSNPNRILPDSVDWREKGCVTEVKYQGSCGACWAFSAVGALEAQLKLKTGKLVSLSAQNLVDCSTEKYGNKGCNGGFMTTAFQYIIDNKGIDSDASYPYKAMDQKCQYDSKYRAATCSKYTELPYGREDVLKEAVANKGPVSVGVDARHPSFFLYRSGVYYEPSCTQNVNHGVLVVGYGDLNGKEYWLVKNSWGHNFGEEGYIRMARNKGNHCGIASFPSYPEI
UniProt Q96DE9: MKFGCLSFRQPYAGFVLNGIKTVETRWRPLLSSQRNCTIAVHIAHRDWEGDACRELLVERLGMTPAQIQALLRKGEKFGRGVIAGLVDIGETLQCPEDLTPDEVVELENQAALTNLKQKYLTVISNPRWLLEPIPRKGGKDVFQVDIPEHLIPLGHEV
UniProt Q53TN4: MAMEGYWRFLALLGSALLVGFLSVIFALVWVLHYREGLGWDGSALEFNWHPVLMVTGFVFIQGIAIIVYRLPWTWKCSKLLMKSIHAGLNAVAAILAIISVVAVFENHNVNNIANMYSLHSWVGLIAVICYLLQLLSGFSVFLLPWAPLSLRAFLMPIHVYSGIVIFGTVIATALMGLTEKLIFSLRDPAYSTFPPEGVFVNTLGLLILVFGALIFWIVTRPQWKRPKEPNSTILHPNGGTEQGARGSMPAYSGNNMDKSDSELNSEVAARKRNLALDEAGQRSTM
UniProt Q9GZU7: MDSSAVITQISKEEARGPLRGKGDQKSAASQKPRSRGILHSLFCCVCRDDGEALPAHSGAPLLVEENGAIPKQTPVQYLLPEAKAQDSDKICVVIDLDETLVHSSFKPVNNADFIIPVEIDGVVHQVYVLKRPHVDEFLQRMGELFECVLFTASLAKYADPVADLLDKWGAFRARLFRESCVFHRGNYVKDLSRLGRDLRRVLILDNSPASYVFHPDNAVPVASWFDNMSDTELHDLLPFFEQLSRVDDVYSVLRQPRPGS
UniProt O95476: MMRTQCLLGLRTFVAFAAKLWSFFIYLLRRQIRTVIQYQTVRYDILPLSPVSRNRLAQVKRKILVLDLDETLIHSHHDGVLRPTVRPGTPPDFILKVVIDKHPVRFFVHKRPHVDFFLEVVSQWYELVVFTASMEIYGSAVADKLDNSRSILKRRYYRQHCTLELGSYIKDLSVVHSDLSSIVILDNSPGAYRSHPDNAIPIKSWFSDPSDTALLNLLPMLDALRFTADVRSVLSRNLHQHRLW
UniProt Q9P0U4, whole entry, looked up: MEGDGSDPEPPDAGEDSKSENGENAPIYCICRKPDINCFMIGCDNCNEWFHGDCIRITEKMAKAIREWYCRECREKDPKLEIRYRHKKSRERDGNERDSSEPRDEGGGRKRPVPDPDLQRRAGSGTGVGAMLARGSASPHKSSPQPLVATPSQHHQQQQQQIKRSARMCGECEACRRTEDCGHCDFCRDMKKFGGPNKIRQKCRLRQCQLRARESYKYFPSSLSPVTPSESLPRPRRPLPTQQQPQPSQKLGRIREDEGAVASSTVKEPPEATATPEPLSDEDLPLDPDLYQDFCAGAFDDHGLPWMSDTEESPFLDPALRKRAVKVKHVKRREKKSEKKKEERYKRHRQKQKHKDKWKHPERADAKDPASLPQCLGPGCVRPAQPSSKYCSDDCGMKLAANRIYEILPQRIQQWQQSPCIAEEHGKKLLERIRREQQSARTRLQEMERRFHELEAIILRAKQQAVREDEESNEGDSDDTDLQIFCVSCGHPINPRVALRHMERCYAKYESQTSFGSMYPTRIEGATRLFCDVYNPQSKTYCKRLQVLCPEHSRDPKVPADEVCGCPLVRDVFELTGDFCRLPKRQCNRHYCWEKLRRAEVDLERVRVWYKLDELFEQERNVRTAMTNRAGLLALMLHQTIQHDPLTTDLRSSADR
UniProt Q05D32: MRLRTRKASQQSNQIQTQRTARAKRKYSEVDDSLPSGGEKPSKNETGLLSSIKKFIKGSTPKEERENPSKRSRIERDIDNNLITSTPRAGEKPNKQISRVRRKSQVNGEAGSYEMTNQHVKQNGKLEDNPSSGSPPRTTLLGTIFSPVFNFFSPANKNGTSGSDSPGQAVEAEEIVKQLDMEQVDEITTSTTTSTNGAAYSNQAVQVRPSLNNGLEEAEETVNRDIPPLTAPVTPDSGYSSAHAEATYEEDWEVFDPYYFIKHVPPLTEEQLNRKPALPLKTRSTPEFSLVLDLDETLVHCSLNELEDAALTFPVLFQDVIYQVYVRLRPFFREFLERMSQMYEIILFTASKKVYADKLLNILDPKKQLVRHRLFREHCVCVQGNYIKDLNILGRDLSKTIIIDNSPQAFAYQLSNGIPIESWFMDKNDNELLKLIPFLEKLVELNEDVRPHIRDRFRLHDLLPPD
UniProt Q9BWK5: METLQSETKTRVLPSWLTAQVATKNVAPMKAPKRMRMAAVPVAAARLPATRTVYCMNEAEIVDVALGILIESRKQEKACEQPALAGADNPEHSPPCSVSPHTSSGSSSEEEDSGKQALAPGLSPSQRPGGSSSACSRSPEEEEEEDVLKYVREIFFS
UniProt Q14999: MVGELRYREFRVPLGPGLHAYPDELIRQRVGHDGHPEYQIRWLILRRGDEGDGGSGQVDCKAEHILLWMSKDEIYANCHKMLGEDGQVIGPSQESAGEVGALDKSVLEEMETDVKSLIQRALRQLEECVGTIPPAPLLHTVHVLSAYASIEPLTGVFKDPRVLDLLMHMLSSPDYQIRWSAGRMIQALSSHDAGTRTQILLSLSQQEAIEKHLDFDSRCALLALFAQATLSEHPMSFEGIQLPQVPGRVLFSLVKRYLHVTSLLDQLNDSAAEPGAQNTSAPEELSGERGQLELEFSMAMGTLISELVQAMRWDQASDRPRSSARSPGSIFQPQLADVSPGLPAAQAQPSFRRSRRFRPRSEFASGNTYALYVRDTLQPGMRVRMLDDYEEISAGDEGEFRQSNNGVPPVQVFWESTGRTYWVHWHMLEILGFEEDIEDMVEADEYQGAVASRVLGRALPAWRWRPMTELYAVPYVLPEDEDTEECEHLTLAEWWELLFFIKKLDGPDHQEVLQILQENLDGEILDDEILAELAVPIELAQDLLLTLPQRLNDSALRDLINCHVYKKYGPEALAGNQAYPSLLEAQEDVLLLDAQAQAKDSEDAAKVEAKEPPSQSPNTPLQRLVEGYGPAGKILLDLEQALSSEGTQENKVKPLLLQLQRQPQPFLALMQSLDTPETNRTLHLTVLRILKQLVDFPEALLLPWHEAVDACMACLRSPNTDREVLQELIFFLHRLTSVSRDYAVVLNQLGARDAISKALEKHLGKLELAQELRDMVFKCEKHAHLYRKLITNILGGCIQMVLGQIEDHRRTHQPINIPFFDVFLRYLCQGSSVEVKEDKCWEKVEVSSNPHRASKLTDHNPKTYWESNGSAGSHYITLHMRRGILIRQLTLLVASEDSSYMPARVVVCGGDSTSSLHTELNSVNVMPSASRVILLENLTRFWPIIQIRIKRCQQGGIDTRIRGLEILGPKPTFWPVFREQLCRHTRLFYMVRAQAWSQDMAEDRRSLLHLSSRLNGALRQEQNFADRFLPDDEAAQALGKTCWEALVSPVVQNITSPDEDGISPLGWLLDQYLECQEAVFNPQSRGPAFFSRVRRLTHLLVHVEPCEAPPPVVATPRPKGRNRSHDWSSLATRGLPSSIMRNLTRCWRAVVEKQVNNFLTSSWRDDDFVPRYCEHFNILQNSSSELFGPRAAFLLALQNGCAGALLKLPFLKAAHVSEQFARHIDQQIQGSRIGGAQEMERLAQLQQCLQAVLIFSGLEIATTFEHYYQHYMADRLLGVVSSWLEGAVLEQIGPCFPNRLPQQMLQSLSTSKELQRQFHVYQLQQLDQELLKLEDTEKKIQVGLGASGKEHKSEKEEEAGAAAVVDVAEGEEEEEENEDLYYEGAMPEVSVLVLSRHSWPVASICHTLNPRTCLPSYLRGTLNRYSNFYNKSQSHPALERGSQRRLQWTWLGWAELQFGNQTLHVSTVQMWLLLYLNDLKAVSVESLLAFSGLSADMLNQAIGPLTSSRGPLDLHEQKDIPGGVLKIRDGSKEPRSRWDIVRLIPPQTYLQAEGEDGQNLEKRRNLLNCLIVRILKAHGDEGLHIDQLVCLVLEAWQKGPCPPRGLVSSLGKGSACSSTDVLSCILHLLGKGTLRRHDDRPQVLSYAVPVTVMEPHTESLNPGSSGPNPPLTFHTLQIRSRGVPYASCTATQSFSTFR
UniProt Q2TBE0: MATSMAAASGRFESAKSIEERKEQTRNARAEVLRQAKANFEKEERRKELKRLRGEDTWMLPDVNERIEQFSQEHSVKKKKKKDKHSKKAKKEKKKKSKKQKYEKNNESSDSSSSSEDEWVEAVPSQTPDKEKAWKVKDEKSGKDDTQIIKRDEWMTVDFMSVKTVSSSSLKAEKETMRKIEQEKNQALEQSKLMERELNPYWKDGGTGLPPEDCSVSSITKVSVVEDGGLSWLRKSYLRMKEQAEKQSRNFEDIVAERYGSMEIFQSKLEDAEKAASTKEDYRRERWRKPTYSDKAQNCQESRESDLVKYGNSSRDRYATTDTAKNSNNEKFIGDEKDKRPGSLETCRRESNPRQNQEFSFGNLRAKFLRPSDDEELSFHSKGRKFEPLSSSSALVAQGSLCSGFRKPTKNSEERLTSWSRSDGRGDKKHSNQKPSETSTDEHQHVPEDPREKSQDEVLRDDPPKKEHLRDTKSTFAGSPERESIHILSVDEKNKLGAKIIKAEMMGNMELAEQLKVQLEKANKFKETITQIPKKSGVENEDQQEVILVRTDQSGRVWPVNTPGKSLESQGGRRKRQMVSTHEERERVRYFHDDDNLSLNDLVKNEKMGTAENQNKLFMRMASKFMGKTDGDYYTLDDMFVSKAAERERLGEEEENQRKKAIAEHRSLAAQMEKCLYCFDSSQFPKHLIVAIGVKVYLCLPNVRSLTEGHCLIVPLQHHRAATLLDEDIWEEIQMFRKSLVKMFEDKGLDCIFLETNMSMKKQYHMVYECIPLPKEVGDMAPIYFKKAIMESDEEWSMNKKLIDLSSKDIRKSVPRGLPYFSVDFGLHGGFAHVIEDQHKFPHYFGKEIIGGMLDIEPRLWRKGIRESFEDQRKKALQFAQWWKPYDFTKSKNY
UniProt Q9NSA3: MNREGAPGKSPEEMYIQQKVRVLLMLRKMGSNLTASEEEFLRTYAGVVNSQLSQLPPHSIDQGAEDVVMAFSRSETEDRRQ
UniProt Q6ZWL3: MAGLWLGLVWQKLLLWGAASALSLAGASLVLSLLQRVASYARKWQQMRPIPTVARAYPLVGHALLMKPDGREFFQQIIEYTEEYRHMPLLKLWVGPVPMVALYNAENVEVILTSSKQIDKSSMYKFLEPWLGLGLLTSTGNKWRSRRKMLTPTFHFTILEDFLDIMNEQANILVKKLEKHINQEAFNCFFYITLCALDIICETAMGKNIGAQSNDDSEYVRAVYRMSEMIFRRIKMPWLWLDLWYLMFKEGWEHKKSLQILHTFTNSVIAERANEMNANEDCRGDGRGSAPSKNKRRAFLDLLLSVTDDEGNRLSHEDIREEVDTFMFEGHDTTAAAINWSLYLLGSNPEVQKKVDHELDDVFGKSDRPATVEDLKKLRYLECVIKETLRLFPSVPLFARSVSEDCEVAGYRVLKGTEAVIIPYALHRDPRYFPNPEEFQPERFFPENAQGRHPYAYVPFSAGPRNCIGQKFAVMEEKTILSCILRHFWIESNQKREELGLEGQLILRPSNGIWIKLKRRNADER
UniProt Q15828: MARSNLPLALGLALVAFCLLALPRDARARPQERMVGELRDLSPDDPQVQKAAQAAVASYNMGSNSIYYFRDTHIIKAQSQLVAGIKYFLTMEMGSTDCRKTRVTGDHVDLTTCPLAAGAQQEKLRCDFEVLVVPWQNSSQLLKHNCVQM

Compound: Cc1ccc(NC(=O)c2ccc(CN3CC[C@H](N(C)C)C3)c(C(F)(F)F)c2)cc1Nc1nccc(-c2cncnc2)n1 [bafetinib]
Assay: log2 fold change, soluble protein after heating vs DMSO (PISA); higher = thermal stabilisation; K562 cells, 10 uM, 30 min; active = over 0.2 and 3.5 SD of the protein, either way, in both replicates (recomputed)
Summary of the method: (§1)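 K562 cells at 2×10^6 cells/mL were given 10 μM compound for 30 min. Aliquots then went through 3 min of heating across 48°C-58°C, were pooled, and were extracted in PBS with 0.5% NP-40 at 4°C, and the supernatant after 21,000xg for 90 min was quantified by TMTpro 16plex LC-MS/MS with channel sums equalised. Thermal stability relative to control samples, from duplicates, is given as log2 fold change.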

Target	log2 fold change
DAPK1 isoform 3 (UniProt P53355)	inactive: -0.254
CYTH2 (UniProt Q99418)	inactive: -0.122
CTNNBL1 (UniProt Q8WYA6)	inactive: -0.12
CXCL14 (UniProt O95715)	inactive: -0.145

Compound: Cc1cccc(CC(=O)N2CCc3c2ccc(-c2cn(C)c4ncnc(N)c24)c3F)n1
Assay: as above
Summary of the method: as §1

Target	log2 fold change
DCAF4 (UniProt Q8WV16)	active: -0.423
CTSS (UniProt P25774)	inactive: -0.063
CXorf40B (UniProt Q96DE9)	inactive: -0.011
CTSF (UniProt Q9UBX1)	inactive: -0.17
DCAF12 (UniProt Q5T6F0)	inactive: 0.124
CYBRD1 (UniProt Q53TN4)	inactive: -0.11
CTDSP1 (UniProt Q9GZU7)	inactive: 0.058
CTDNEP1 (UniProt O95476)	inactive: -0.005
CXXC1 isoform 2 (UniProt Q9P0U4)	inactive: -0.024
DCUN1D5 (UniProt Q9BTE7)	inactive: -0.073
CTDSPL2 (UniProt Q05D32)	inactive: -0.077
CYREN (UniProt Q9BWK5)	inactive: -0.016
CUL7 isoform 2 (UniProt Q14999)	inactive: -0.238
CWF19L2 (UniProt Q2TBE0)	inactive: -0.285
CTR9 (UniProt Q6PD62)	inactive: -0.104
CTNNBIP1 (UniProt Q9NSA3)	inactive: -0.045
CYP4V2 (UniProt Q6ZWL3)	inactive: -0.022

Compound: Cc1cn(-c2cc(NC(=O)c3ccc(C)c(Nc4nccc(-c5cccnc5)n4)c3)cc(C(F)(F)F)c2)cn1 [nilotinib]
Assay: as above
Summary of the method: as §1

Target	log2 fold change
CST6 (UniProt Q15828)	inactive: -0.119
DCAF4 (UniProt Q8WV16)	inactive: -0.204
CTDP1 (UniProt Q9Y5B0)	inactive: 0.008
CTDSP1 (UniProt Q9GZU7)	inactive: 0.14
CTDSPL2 (UniProt Q05D32)	inactive: -0.014
CYREN (UniProt Q9BWK5)	inactive: -0.102
CUL7 isoform 2 (UniProt Q14999)	inactive: -0.305
CXCL14 (UniProt O95715)	inactive: -0.128

Compound: Cc1nc(Nc2n[nH]c3c2CN(C(=O)N[C@H](CN(C)C)c2ccccc2)C3(C)C)c2sccc2n1
Assay: as above
Summary of the method: as §1

Target	log2 fold change
CST6 (UniProt Q15828)	inactive: 0.219
DCAF4 (UniProt Q8WV16)	inactive: -0.007
CTDP1 (UniProt Q9Y5B0)	inactive: 0.06
CTDSP1 (UniProt Q9GZU7)	inactive: -0.084
CTDSPL2 (UniProt Q05D32)	inactive: -0.098
CYREN (UniProt Q9BWK5)	inactive: 0.029
CUL7 isoform 2 (UniProt Q14999)	inactive: 0.079
CXCL14 (UniProt O95715)	inactive: -0.104

Compound: Cc1nc(Nc2ncc(C(=O)Nc3c(C)cccc3Cl)s2)cc(N2CCN(CCO)CC2)n1 [dasatinib]
Assay: as above
Summary of the method: as §1

Target	log2 fold change
DAAM1 (UniProt Q9Y4D1)	inactive: 0.03
DCAF4 (UniProt Q8WV16)	inactive: 0.11
DCUN1D4 isoform 3 (UniProt Q92564)	inactive: 0.035
CYTH1 (UniProt Q15438)	inactive: 0.124
CTSS (UniProt P25774)	inactive: 0.052
DCBLD1 (UniProt Q8N8Z6)	inactive: 0.106
CXXC5 (UniProt Q7LFL8)	inactive: 0.097
CXorf40B (UniProt Q96DE9)	inactive: -0.16
DCP2 (UniProt Q8IU60)	inactive: 0.02
CYBRD1 (UniProt Q53TN4)	inactive: 0.022
CTDP1 (UniProt Q9Y5B0)	inactive: -0.003
CTDNEP1 (UniProt O95476)	inactive: -0.171
DCBLD2 isoform 2 (UniProt Q96PD2)	inactive: -0.084
CXXC1 isoform 2 (UniProt Q9P0U4)	inactive: 0.131
CTDSPL2 (UniProt Q05D32)	inactive: 0.072
CUL7 isoform 2 (UniProt Q14999)	inactive: -0.488
CYTH2 (UniProt Q99418)	inactive: -0.049
CWF19L2 (UniProt Q2TBE0)	inactive: 0.118
CTR9 (UniProt Q6PD62)	inactive: 0.104
CTNNBIP1 (UniProt Q9NSA3)	inactive: 0.067
CYP4V2 (UniProt Q6ZWL3)	inactive: -0.018

Compound: Cc1ncc(-c2ccnc(Nc3ccc(S(C)(=O)=O)cc3)n2)n1C(C)C
Assay: as above
Summary of the method: as §1

Target	log2 fold change
CST6 (UniProt Q15828)	inactive: 0.295
DCAF4 (UniProt Q8WV16)	inactive: -0.093
CTDP1 (UniProt Q9Y5B0)	inactive: -0.058
CTDSP1 (UniProt Q9GZU7)	inactive: 0.026
CTDSPL2 (UniProt Q05D32)	inactive: 0.002
CYREN (UniProt Q9BWK5)	inactive: 0.045
CUL7 isoform 2 (UniProt Q14999)	inactive: 0.12
CXCL14 (UniProt O95715)	inactive: 0.042

Compound: Cn1cc(-c2ccc3c(c2)CCN3C(=O)Cc2cccc(C(F)(F)F)c2)c2c(N)ncnc21
Assay: as above
Summary of the method: as §1

Target	log2 fold change
DAAM1 (UniProt Q9Y4D1)	inactive: -0.276
DCUN1D4 isoform 3 (UniProt Q92564)	inactive: 0.048
CTNS isoform 2 (UniProt O60931)	inactive: 0.052
CTSS (UniProt P25774)	inactive: -0.07
DCBLD1 (UniProt Q8N8Z6)	inactive: 0.163
CXorf40B (UniProt Q96DE9)	inactive: -0.023
DCP2 (UniProt Q8IU60)	inactive: -0.021
CYBRD1 (UniProt Q53TN4)	inactive: -0.073
CTDP1 (UniProt Q9Y5B0)	inactive: -0.145
CTDNEP1 (UniProt O95476)	inactive: -0.145
CXXC1 isoform 2 (UniProt Q9P0U4)	inactive: -0.004
CSRP2 (UniProt Q16527)	inactive: -0.083
CTDSPL2 (UniProt Q05D32)	inactive: 0.297
CWF19L2 (UniProt Q2TBE0)	inactive: -0.102
CTNNBIP1 (UniProt Q9NSA3)	inactive: -0.002
DBNL (UniProt Q9UJU6)	inactive: 0.308
CYP4V2 (UniProt Q6ZWL3)	inactive: 0.062
CTIF (UniProt O43310)	inactive: 0.063
